The text below walks through data of US20190298661A1, “Transdermal Delivery of Phenethylamine Monoamine Releasers” (priority 2016, published 2019).

The data set in a line: Skin resistance after 4 h of iontophoresis or passive control. Also on record: species or system human.

`CC(N)Cc1cccc(F)c1` (centres unmarked) [PAL-353, 3-fluoroamphetamine]: the “decrease of skin resistance” value (after 4 h of current application (0.5 mA/cm^2)) was 87.69±3.03% and the “decrease of skin resistance” value (passive control group, no current, 4 h) amounted to 18.47±6.40%.
